Reference: article PMC12006179
These are yes or no findings as the source states them, for the method shown. In cells and extracts the contact can be indirect. Some binding calls cover weakened binding; strength is not graded here.

The chains behind the UniProt entries cited, without tags or fusion partners. Residues count along the entry.
UniProt P18848: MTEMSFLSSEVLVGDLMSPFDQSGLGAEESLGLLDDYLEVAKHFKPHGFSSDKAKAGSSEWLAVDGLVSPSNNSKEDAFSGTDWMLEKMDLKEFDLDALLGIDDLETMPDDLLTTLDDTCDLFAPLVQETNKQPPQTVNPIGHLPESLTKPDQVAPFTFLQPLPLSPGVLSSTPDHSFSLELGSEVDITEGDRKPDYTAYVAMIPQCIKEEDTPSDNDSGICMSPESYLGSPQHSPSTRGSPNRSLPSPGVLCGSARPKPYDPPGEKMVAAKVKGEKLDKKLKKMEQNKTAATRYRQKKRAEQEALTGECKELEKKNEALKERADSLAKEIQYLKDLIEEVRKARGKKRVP
UniProt P11021, residues 19-654: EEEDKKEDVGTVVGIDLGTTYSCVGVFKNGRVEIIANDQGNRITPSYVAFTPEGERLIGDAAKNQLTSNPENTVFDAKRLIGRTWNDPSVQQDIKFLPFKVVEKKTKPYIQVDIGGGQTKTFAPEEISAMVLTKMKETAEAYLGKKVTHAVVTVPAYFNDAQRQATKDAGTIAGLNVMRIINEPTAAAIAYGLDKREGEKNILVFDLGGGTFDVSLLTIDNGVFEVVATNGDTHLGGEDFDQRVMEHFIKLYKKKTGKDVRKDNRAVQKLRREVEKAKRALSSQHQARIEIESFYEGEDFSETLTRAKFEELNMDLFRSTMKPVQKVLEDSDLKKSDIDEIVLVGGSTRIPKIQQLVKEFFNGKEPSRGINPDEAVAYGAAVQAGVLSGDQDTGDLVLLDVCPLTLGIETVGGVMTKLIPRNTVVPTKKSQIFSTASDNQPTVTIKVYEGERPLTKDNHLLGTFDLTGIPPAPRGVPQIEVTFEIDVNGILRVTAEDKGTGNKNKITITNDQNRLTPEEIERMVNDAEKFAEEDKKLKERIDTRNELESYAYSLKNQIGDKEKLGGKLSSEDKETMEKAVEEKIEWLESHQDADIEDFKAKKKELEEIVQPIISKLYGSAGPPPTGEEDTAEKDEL

Biological target: Flag-ATF4 (activating transcription factor 4) (UniProt P18848)
Experiment: co-IP; HEK293T cells co-transfected with Flag-ATF4 and HA-HSPA5; IP assays to enrich Flag-ATF4 and HA-HSPA5, Western blot

In the case of “HA-HSPA5 (heat shock protein family A member 5) (from UniProt P11021 19-654)”, the binding is reported as “binds”.
